Some of the results follow. Shown are side measurements of this screen, not its main read-out; they come without a call. Most of these compounds were active or inconclusive in the main read-out, so they are no random draw. The note in brackets gives the kind of curve behind each potency; many fits are weak.
Test: qHTS Assay for Lipid Storage Modulators in Drosophila S3 Cells;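 as to cell number change: cells counted by Cell Tracker Red CMTPX staining in the red channel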
Conditions: BODIPY lipid droplet fluorescence, 18-24 h; for cell number change: measured here: cell count max response, cells fed with added oleic acid
How it was run: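 Drosophila S3 cells loaded with oleic acid (400 uM, as added) and compounds at several concentrations; lipid droplets imaged by 488-nm laser-scanning cytometry, 500–530 nm intensity and object ratio to cell channel. Percent activity normalized to 20 uM Triacsin C.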

[1] = measured here: cell number channel AC50, cells fed with added oleic acid
[2] = measured here: lipid fluorescence (Fed channel) AC50, cells fed with added oleic acid

| SMILES | cell number change [%] | AC50 [1] | AC50 [2] |
| --- | --- | --- | --- |
| COc1cccc(/C=N\NC(=O)c2ccc(Cn3cc(Br)c([N+](=O)[O-])n3)o2)c1O | -41 | 29.1 µM [falling, partial curve] | 20.6 µM [falling, partial curve, poor fit] |
| N#CC1=C(N)N(c2ccc(Oc3ccccc3)cc2)C(=O)C1 | 48.9 | 8.2 µM [rising, single point] | 2.31 µM [rising, full curve] |
| CCN(c1ccc(C)c(C)c1)S(=O)(=O)c1ccc2c(c1)CCN2C(=O)CCC(=O)O | 1.54 | 2.91 µM [falling, partial curve, poor fit] |  |
| COc1ccc(CCNC(=O)c2ccc(-c3ccc([N+](=O)[O-])cc3Cl)o2)cc1OC | 14.3 |  | 20.6 µM [falling, partial curve] |
| O=C(Nc1ccccc1Cl)c1cc[n+](Cc2ccc([N+](=O)[O-])cc2)cc1 | -5.97 |  | 0.00731 µM [falling, full curve, poor fit] |
| CCC(=O)Nc1nc(C)cc(SCC(=O)OC)n1 | 15.8 |  | 23.1 µM [falling, partial curve] |
| CCC(=O)N1CCN=C1SCc1cccc(C(F)(F)F)c1 | 0.59 |  |  |
| CCC(=O)c1cccc2c1N=CC1=C(CC(C)(C)CC1=O)N2 | 9.53 |  | 0.164 µM [rising, partial curve, poor fit] |
| Cn1c(/C(C#N)=C/c2ccncc2)nc2ccccc21 | -8.05 |  | 0.0058 µM [falling, full curve, poor fit] |
| Cc1ccc(S(=O)(=O)CCC(=O)NCc2ccccc2Cl)cc1 | -13.9 |  |  |
| COC(=O)C(CCSC)NS(=O)(=O)c1ccc(Cl)cc1 (stereo not given) | 31 | 29.1 µM [rising, single point] | 29.1 µM [rising, single point] |
| COc1cc([C@@H]2c3cc4c(cc3[C@@H](O)[C@H]3COC(=O)[C@H]23)OCO4)cc(OC)c1O[Si](C)(C)C(C)(C)C | -19.2 |  |  |
| CCN(C(=O)c1ccc(S(=O)(=O)N(C)C)cc1)C(C)C(=O)Nc1ccc(C)cc1 (stereo not given) | -24.6 | 3.26 µM [falling, full curve, poor fit] | 6.51 µM [falling, single point] |
| CN(CCOc1ccc(Cl)cc1)C(=O)C1CCN(C(=O)c2ccc(F)cc2)CC1 | 23.8 |  | 2.91 µM [rising, single point] |
| CCOc1cc(N2CCOCC2)c(OCC)cc1NC(=O)c1cc(C)nc2ccccc12 | -20.6 | 0.00517 µM [falling, full curve, poor fit] | 0.00411 µM [falling, full curve, poor fit] |
| O=C(CCS(=O)(=O)Cc1ccccc1)NCCc1ccccc1 | -1.36 |  | 6.51 µM [rising, partial curve, poor fit] |
| Cc1ccc(NC(=O)COC(=O)c2ccc(Cl)cc2)cc1S(=O)(=O)N(C)C |  | 6.51 µM [falling, single point] | 1.46 µM [falling, single point] |
| COCCn1c(CN2CCN(c3ccc(F)cc3)CC2)nc2c1c(=O)n(C)c(=O)n2C | -29.8 |  | 25.9 µM [falling, partial curve, poor fit] |
| Cc1oc(-c2ccc(Cl)cc2)nc1CN1CCCC(C(=O)NCCCN2CCOCC2)C1 (stereo not given) | -7.49 | 1.16 µM [falling, partial curve] |  |
| O=C(O)CC(NCc1ccco1)C(=O)OCCc1ccccc1 (stereo not given) | 16.1 |  |  |
| CC1=CC(C)(C)NC(=S)N1c1ccccc1 | 11.5 |  | 2.06 µM [falling, full curve] |
| COc1cc(-c2nnc(-c3cccs3)o2)cc(OC)c1OC | 28.2 |  | 1.3 µM [rising, partial curve] |
| COC1=C(Nc2ccccc2OC)C(=O)c2ccccc2C1=O | -52.4 | 29.1 µM [falling, single point] | 29.1 µM [falling, single point] |
| O=C(Cc1ccc(Cl)cc1)NC1CCS(=O)(=O)C1 (stereo not given) | 0.829 |  | 20.6 µM [rising, single point] |
| O=C(c1cnn(-c2ccc(Cl)cc2)c1)c1ccccc1O | 55.5 |  |  |
| COc1cc(C)ccc1OCCCOc1c(Cl)cccc1Cl | 1.32 |  | 0.92 µM [rising, full curve, poor fit] |
| CC(=O)C1=C(O)C(=O)N(CCc2c[nH]c3ccccc23)C1c1cccc(O)c1 (stereo not given) |  |  | 23.1 µM [falling, partial curve] |

| SMILES | cell number change [%] | AC50 [1] | AC50 [2] |
| --- | --- | --- | --- |
| O=C(COc1ccccc1F)Nc1c2c(nn1-c1ccccc1)CS(=O)(=O)C2 | 28.2 | 2.31 µM [rising, single point] | 16.4 µM [rising, partial curve, poor fit] |
| COC(=O)c1cccc(Cn2nnc3ccccc3c2=O)c1 |  | 0.326 µM [rising, partial curve] | 0.103 µM [rising, full curve, poor fit] |
| CCCCOC(=O)C1[C@H]2C(=O)N(c3ccccc3CC)C[C@]23C=C[C@H]1O3 (stereo not given in full) | 1.37 |  |  |
| CC(C)Cn1c(-c2cccnc2)nc2c1c(=O)[nH]c(=O)n2CC(C)C | 24.1 |  | 29.1 µM [rising, single point] |
| CC(=O)c1ccc(N2CCN(C(=O)c3ccc4c(=O)n(-c5ccccc5)c(=O)[nH]c4c3)CC2)cc1 | -18.3 | 0.103 µM [falling, full curve, poor fit] |  |
| CCOC(=O)Cc1nnc(NC(=O)CC)s1 | 31.6 | 7.31 µM [rising, partial curve] | 6.51 µM [rising, single point] |
| O=P(Cc1cc(Br)cc(Br)c1OCCO)(c1ccccc1)c1ccccc1 | 26.8 | 0.092 µM [rising, full curve, poor fit] |  |
| CCOc1ccc(NC(=O)N2CCC(C(=O)c3ccc(F)cc3)CC2)cc1 | -46.4 | 32.6 µM [falling, single point] | 20.6 µM [falling, single point] |
| Cc1cc2oc(=O)cc(CSc3nc(N)cc(N)n3)c2cc1C(C)C | 13.2 | 0.092 µM [rising, full curve, poor fit] | 0.82 µM [rising, full curve, poor fit] |
| O=C(COC(=O)c1ccc(Br)cc1)NCCc1ccccc1 | -20.8 | 0.651 µM [falling, full curve] | 0.13 µM [falling, full curve, poor fit] |
| Cc1cc(C)cc(-n2ncc3c2CCCC3NC(=O)c2ccccc2N2CCOCC2)c1 (stereo not given) | -30.6 | 1.84 µM [falling, partial curve, poor fit] | 4.61 µM [falling, full curve] |
| COc1cccc(CNS(=O)(=O)c2ccc3c(c2)N(C(C)=O)CCO3)c1 | -0.597 |  | 2.31 µM [rising, single point] |
| CCCCn1nc(C(=O)NCC(c2cccs2)N2CCOCC2)c2ccccc2c1=O (stereo not given) | -50.9 | 20.6 µM [falling, partial curve] | 0.651 µM [falling, partial curve, poor fit] |
| Cc1ccc(-n2c(COc3c(C)cccc3C)nnc2SCC(=O)Nc2nccs2)cc1 | 54.3 | 0.411 µM [rising, full curve] | 0.92 µM [rising, partial curve] |
| Cc1ccc(Cl)c(OCC(=O)NCC(c2cccs2)N2CCOCC2)c1 (stereo not given) | 63.7 | 7.31 µM [rising, partial curve] | 8.2 µM [rising, partial curve] |
| CC(C)n1c(=O)n(CC(=O)NCC2CCCO2)c(=O)c2c3c(sc21)COC(C)(C)C3 (stereo not given) | 28.7 |  | 29.1 µM [rising, single point] |
| CCc1ccccc1NC(=O)c1cccc(NC(=O)/C=C/c2ccco2)c1 | -4.94 |  | 13 µM [falling, partial curve, poor fit] |
| O=C(/C=C/c1ccco1)NCC1COc2ccccc2O1 (stereo not given) | 6.55 |  | 29.1 µM [falling, single point] |
| CN(C)S(=O)(=O)c1ccc(N2CCCC2)c(C(=O)N2CCN(S(=O)(=O)c3ccccc3F)CC2)c1 | 24.5 |  |  |
| C/C(N)=C(/C#N)C(=O)COC(=O)c1cc(-c2ccccc2)nc2ccc(Br)cc12 | 63.1 | 18.4 µM [rising, partial curve] |  |
| Cc1ccnc(NC(=O)c2cc(-c3ccc(Cl)s3)nc3ccccc23)c1 |  | 2.91 µM [rising, partial curve] |  |
| Cc1ccc(OCC(=O)NNC(=O)c2ccco2)c(C)c1 | 11 |  |  |
| Cc1ccc(Nc2ccc(S(=O)(=O)N3CCOCC3)cc2[N+](=O)[O-])cc1C | -48.9 | 25.9 µM [falling, single point] |  |
| O=C(Nc1ccc2oc(-c3ccccc3)nc2c1)c1ccc2c(c1)OCCO2 | 6.94 |  | 0.461 µM [rising, full curve, poor fit] |
| Cc1cccc(N2C(=S)N=C(Nc3c(C)cccc3C)C23CCOC(C)(C)C3)c1 (stereo not given) | 33.2 | 32.6 µM [rising, single point] | 6.51 µM [falling, single point] |
| COc1cc(CNCc2cc(OC)ccc2OC)cc(OC)c1 | 15.8 |  | 29.1 µM [rising, single point] |
| O=C(COc1ccccc1)NCC(c1ccco1)N1CCN(c2ccc(F)cc2)CC1 (stereo not given) | 45.3 | 5.8 µM [rising, full curve, poor fit] | 5.8 µM [rising, single point] |

As entered above:
Under AC50 [2], COCCn1c(CN2CCN(c3ccc(F)cc3)CC2)nc2c1c(=O)n(C)c(=O)n2C has the entry 25.9 µM [falling, partial curve, poor fit]
Under AC50 [2], Cn1c(/C(C#N)=C/c2ccncc2)nc2ccccc21 has the entry 0.0058 µM [falling, full curve, poor fit]
Under AC50 [2], Cc1cccc(N2C(=S)N=C(Nc3c(C)cccc3C)C23CCOC(C)(C)C3)c1 (stereo not given) has the entry 6.51 µM [falling, single point]
